Results from patent US6958318B2, “Recombinant bacterial cells for delivery of PNP to tumor cells” (The UAB Research Foundation, priority 1993, dated 2005).

Protein sequences, listed by entry. Tags and fused reporters are not part of them. Residues count along the entry.
UniProt P0ABP8, 2-239: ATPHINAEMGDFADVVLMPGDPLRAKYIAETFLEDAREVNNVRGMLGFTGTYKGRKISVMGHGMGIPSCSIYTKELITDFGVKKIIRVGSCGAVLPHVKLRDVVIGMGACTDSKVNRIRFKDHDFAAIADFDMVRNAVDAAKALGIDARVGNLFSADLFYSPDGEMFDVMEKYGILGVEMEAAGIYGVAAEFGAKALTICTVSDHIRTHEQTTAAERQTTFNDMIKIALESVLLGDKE

Biological target: E. coli PNP (Escherichia coli, UniProt P0ABP8)
Assay type: biochemical

For `Nc1ncnc2c1ncn2[C@H]1O[C@H](CO)[C@@H](O)[C@H]1O` [α-adenosine], the “Substrate quality for bacterial (E. coli) PNP” value was “moderate substrates”.
